Here are results for two sequences from patent US20090148895.

Protein sequences can lack the tags named with them.

In the data set the target is T1, Cre recombinase (UniProt P06956).
T1 sequence (limits assumed): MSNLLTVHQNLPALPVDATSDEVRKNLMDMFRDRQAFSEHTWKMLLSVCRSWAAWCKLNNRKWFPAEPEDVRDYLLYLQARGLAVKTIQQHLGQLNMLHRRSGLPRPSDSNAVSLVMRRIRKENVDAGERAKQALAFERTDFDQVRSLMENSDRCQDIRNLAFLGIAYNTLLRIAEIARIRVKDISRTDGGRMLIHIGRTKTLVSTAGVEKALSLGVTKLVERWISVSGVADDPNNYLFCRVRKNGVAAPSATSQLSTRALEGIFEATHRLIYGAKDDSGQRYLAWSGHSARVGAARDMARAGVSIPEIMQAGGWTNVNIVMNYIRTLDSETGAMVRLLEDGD
Description: activity in cells. To be noted: in S. cerevisiae chromosome 6, protein in cells, only the site is given.

Take “ATAACTTCGTATAAGAAACCATATACGAAGTTAT (double strand) [loxm2]”: where the note is “inversion between inverted loxm2 pair and about 40 kb mini chromosome by loxm2 recombination, variant of loxP”, the “activity on this sequence” value is on record as “active”.
In the case of “ATAACTTCGTATAATGTATGCTATACGAAGTTAT (double strand) [loxP]”, the “activity on this sequence” value (inversion between inverted loxP pair and about 18 kb mini chromosome by loxP recombination) is given as “active”.
